The record followed here is article doi:10.1101/2023.07.11.548556.

The chains behind the UniProt entries cited, without tags or fusion partners. Residues count along the entry.
UniProt Q07954, residues 20-4544: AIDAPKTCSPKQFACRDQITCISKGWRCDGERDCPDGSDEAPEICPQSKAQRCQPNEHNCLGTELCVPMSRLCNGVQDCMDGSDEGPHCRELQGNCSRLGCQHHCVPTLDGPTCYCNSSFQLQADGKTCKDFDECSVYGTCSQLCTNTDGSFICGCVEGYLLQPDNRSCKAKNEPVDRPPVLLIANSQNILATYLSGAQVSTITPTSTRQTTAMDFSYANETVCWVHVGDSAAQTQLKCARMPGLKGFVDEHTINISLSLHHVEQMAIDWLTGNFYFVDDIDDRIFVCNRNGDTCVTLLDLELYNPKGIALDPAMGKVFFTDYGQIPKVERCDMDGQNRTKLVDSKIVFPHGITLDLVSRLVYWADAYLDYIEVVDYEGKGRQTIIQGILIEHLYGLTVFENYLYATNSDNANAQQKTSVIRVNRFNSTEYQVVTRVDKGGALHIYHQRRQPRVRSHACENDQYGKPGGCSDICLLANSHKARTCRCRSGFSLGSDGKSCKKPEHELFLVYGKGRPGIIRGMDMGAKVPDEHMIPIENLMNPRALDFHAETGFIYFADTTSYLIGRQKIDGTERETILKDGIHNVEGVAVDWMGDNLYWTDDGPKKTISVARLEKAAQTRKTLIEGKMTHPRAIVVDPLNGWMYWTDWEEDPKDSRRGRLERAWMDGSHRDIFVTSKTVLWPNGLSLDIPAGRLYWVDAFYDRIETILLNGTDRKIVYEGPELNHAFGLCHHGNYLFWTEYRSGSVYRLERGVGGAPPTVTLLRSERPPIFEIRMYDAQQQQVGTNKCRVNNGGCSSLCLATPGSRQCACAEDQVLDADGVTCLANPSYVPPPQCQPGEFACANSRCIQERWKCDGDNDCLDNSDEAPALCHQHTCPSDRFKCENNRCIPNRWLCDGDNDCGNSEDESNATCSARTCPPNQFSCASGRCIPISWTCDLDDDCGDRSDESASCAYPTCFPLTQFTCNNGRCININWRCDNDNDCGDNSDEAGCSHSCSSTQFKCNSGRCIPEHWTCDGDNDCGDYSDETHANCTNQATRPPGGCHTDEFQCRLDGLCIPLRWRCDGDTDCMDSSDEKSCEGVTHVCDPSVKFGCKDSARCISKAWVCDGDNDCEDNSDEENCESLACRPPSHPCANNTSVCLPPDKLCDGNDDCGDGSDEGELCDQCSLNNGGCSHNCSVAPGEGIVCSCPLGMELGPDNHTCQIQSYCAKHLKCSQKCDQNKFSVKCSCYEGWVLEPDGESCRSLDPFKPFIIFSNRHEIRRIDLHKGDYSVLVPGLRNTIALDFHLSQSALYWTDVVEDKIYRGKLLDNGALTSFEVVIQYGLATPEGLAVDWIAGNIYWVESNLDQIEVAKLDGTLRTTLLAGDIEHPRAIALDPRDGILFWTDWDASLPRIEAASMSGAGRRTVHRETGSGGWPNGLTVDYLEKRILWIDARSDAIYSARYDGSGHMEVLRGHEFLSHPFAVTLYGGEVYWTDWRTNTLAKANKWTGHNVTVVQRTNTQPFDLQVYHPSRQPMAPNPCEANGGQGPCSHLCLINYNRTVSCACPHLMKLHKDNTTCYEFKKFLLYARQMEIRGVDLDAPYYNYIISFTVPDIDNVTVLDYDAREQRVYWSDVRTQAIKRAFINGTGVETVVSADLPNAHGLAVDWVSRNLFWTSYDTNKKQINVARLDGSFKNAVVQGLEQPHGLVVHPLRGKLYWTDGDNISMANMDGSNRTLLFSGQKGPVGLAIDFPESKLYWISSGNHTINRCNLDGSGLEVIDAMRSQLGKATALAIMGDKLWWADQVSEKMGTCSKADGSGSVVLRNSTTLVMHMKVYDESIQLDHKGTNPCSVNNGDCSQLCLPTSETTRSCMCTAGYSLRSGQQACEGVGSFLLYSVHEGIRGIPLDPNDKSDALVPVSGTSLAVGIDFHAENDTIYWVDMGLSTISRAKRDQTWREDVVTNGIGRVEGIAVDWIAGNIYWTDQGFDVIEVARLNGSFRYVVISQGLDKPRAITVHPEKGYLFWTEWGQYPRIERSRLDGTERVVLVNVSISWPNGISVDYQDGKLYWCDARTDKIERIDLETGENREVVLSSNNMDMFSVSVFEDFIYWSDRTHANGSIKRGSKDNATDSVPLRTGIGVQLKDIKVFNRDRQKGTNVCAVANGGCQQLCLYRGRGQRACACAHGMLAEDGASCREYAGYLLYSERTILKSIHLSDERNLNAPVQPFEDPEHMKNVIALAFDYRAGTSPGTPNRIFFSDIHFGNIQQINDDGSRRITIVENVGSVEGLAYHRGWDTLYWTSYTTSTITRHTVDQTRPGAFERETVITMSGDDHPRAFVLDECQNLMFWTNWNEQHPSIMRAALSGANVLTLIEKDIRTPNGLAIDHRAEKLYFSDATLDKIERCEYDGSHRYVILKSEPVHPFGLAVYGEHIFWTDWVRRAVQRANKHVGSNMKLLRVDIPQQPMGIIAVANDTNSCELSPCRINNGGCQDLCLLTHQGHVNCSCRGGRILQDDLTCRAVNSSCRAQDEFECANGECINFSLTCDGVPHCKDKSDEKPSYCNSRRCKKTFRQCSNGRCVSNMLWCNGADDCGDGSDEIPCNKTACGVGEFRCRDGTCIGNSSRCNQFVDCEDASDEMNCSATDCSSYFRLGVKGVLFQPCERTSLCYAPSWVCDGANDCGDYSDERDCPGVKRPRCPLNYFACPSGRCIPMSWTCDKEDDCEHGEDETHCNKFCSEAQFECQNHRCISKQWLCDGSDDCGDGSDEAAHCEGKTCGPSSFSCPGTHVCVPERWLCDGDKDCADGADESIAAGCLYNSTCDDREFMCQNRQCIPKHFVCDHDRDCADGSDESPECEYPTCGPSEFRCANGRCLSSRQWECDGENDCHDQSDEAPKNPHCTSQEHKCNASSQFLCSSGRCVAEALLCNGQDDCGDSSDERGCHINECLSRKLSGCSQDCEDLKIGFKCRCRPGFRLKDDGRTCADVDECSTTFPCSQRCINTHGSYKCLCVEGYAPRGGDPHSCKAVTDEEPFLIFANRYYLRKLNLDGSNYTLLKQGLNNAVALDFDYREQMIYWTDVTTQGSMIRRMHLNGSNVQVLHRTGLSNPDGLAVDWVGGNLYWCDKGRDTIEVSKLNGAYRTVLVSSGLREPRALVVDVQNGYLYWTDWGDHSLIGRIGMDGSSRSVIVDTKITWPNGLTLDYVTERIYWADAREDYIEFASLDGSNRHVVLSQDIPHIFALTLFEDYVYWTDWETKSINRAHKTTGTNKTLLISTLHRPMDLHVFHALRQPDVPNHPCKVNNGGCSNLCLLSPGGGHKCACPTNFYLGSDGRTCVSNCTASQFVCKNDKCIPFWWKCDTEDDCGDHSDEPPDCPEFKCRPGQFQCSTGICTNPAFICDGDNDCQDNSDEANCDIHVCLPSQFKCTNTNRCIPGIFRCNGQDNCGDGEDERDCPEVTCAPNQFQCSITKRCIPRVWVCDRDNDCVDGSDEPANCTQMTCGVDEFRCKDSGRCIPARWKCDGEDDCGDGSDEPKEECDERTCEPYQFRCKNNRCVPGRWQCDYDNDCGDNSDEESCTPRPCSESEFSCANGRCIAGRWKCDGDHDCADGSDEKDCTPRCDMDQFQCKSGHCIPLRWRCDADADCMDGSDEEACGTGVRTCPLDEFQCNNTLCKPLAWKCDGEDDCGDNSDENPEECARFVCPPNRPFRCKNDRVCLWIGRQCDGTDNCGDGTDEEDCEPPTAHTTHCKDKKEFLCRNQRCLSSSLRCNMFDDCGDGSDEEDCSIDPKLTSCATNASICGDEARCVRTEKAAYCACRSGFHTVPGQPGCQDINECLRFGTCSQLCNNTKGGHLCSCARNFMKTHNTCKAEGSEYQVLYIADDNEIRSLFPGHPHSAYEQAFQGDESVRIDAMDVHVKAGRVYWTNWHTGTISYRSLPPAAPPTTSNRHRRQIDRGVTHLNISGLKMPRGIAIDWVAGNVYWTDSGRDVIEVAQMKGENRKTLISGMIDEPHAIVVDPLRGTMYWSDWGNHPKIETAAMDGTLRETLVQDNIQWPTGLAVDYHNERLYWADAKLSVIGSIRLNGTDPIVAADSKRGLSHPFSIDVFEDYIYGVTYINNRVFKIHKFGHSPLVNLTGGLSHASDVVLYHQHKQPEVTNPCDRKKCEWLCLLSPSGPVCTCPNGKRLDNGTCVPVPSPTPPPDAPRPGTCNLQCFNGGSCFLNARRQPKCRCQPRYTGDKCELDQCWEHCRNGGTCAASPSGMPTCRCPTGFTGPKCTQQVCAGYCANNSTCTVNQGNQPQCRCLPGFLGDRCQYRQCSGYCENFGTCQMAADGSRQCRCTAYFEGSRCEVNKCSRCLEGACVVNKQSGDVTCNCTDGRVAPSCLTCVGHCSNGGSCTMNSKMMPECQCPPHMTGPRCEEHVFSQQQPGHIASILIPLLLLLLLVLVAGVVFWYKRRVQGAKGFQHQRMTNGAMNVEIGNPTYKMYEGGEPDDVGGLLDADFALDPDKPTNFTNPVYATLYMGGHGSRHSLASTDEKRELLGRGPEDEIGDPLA
UniProt P56704, residues 19-352: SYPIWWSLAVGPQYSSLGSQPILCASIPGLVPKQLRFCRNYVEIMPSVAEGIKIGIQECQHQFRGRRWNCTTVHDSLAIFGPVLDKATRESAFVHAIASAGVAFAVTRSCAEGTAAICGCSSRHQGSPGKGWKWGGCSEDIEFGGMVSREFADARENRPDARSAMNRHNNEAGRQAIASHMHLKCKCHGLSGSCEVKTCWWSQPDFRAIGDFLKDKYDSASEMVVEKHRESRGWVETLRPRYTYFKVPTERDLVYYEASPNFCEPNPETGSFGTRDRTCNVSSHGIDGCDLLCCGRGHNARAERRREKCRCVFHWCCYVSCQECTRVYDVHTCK

The target in this assay is Low-density lipoprotein receptor-related protein 1 (LRP1), purified human full-length (human) (UniProt Q07954). The assay is described as follows: ELISA. (In general: An ELISA detects its analyte on a solid surface through an enzyme-linked reagent.)

No constants are given. Whether binding was seen depends on the method and setting.

As to “Wnt3a (from UniProt P56704 19-352) (ligand)”, the binding entry is given as “no binding (tested: >200 nM)”.
